# Laboratory results taken from the supplement of paper PMC8256030.
# Values joined by “and” are separate entries in the source; they are usually repeats but may differ in a detail not shown here. Identical values can stand only once. This is one part of the list. Repeats in this data set agree poorly, so a single value says little.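 HEK293T cells were given each compound shortly before transfection with a reporter in which red mCherry is followed by the SARS-CoV-2 frameshift element and then GFP in the −1 frame, so GFP appears only after frameshifting.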
# Tested on: SARS-CoV-2 -1 PRF reporter mCherry-FSE-GFP(-1)
# Experiment: mCherry (red) intensity as percent of control; higher = higher upstream reporter expression
# Conditions: 10 µM; 24 h; HEK293T
row,Compound,mCherry
1,NS(=O)(=O)Cc1noc2ccccc12 [zonisamide],101%
2,C[C@]12CCC(=O)C=C1CC[C@@H]1[C@@H]2[C@@H](O)C[C@@]2(C)[C@H]1CC[C@]2(O)C(=O)CS [tixocortol],98.2%
3,CC(=O)Oc1ccccc1C(=O)O [Acetylsalicylic Acid],59.3%
4,COc1ccc2c(c1)N(CCCN(C)C)c1ccccc1S2 [methopromazine],72.7%
5,COc1cc([C@@H]2c3cc4c(cc3[C@@H](O[C@@H]3O[C@@H]5CO[C@@H](c6cccs6)O[C@H]5[C@H](O)[C@H]3O)[C@H]3COC(=O)[C@H]23)OCO4)cc(OC)c1O [Vumon],137%
6,C[C@@H](NCCCc1cccc(C(F)(F)F)c1)c1cccc2ccccc12 [cinacalcet],148%
7,C=C1CC[C@H](O)C/C1=C/C=C1\CCC[C@]2(C)[C@@H]([C@H](C)/C=C/[C@H](C)C(C)C)CC[C@@H]12,103%
8,CC1(C)S[C@@H]2[C@H](NC(=O)[C@H](N)c3ccc(O)cc3)C(=O)N2[C@H]1C(=O)O [amoxicillin],74.6%
9,Nc1nc(OCc2cc(Br)cs2)c2[nH]cnc2n1 [lomeguatrib],99.2%
10,CN[C@H]1CC[C@@H](c2ccc(Cl)c(Cl)c2)c2ccccc21,130%
11,CCCCOc1cc(C(=O)NCCN(CC)CC)c2ccccc2n1 [cinchocaine],98%
12,CN(C)CCOC(=O)COc1ccc(Cl)cc1 [meclofenoxate],90.2%

# Tested on: SARS-CoV-2 -1 PRF reporter mCherry-FSE-GFP(-1)
# Experiment: percent effect, decrease of GFP/mCherry ratio (-1 PRF reporter) relative to controls; higher = stronger frameshift inhibition
# Conditions: 10 µM; 24 h; HEK293T
row,Compound,percent effect
1,CCNC(=O)CCC/C=C\C[C@@H]1[C@@H](/C=C/[C@@H](O)CCc2ccccc2)[C@H](O)C[C@@H]1O [bimatoprost],0.644%
2,CCC/C=C\C=C/C(=O)N[C@@H](CC(N)=O)C(=O)NC(CC(N)=O)C(=O)N[C@@H](C(=O)N[C@H](CCCN)C(=O)N[C@@H](C(=O)N[C@@H](C(=O)N[C@@H](C(=O)N[C@H](C(=O)N[C@@H](Cc1ccccc1)C(=O)N[C@H](CCCN)C(=O)NC(C(=O)N[C@H](C(=O)NC(C(=O)NCC(=O)N[C@@H](CC(C)C)C(=O)N[C@H](C)C(=O)NC(C(=O)O)C1CCC(O)C(Cl)C1)C1CCC(O)CC1)[C@H](C)O)C1CCC(O)CC1)[C@H](C)O)C1CCC(O)CC1)C1CCC(O)CC1)[C@H](C)O)C1CCC(O)CC1 (some centres not stated),-3.27%
3,Nc1nc(/C(=C/CC(=O)O)C(=O)N[C@@H]2C(=O)N3C(C(=O)O)=CCS[C@H]23)cs1 [Cedax],-3.74%
4,COc1cc2c(cc1OC)C(=O)C(CC1CCN(Cc3ccccc3)CC1)C2 (configuration not stated),-3.47%
5,O=C(O)Cn1c(=O)n(Cc2ccc(Br)cc2F)c(=O)c2ccc(Cl)cc21 [zenarestat],-6.66%
6,c1ccc(CN(CCN2CCCC2)c2ccccc2)cc1 [histapyrrodine],-4.68%
7,COc1ccc([C@]2(C#N)CC[C@@H](C(=O)O)CC2)cc1OC1CCCC1 [cilomilast],-6.83%
8,Cc1ccc(S(=O)(=O)NC(=O)NN2CC3CCCC3C2)cc1 (configuration not stated) [gliclazide],0.581% and -1.42%
9,Nc1ccc(S(=O)(=O)Nc2ncccn2)cc1 [sulfadiazine sodium],0.806%
10,C=C[C@H]1CN2CC[C@H]1C[C@H]2[C@H](O)c1ccnc2ccc(OC)cc12 [Aflukin],4.34%
11,CC(=O)N[C@H]1[C@H](O[C@H]2[C@H](O)[C@@H](NC(C)=O)C(O)O[C@@H]2CO)O[C@H](CO)[C@@H](O)[C@@H]1O (some centres not stated),-0.174%
12,CN[C@H]1CC[C@@H](c2ccc(Cl)c(Cl)c2)c2ccccc21 [sertraline],-4.91%
13,NC(=O)NS(=O)(=O)c1ccc(N)cc1 [sulfacarbamide],-0.152%
14,C=CCN1C(=O)C(CC(C)C)NC1=S (configuration not stated) [albutoin],-11.7%
15,O=C1NC(=O)C(Cc2ccc3cc(OCc4ccccc4F)ccc3c2)S1 (configuration not stated) [netoglitazone],-4.5%
16,CCN(CC)CC#CCOC(=O)C(O)(c1ccccc1)C1CCCCC1 (configuration not stated),-3.03%
17,Cc1cccc(C)c1OCC(=O)N[C@@H](Cc1ccccc1)[C@@H](O)C[C@H](Cc1ccccc1)NC(=O)[C@H](C(C)C)N1CCCNC1=O [lopinavir],-3.65%
18,CCN(CC)CCCN1c2ccccc2Sc2ccc(Cl)cc21 [chlorproethazine],-2.01%
19,COC[C@H]1O[C@@H](OC2OC[C@@H]3O[C@]4(O[C@H]3[C@H]2OC(=O)C(C)C)O[C@H](C)[C@@](O)(C(C)=O)[C@@H]2OCO[C@H]24)[C@@H](OC)[C@@H](O)[C@@H]1O[C@@H]1O[C@H](C)[C@H](OC)[C@H](O[C@H]2C[C@@]3(C)OC4(C[C@@H](O)[C@H](O[C@H]5C[C@@H](O)[C@H](OC(=O)c6c(C)c(Cl)c(O)c(Cl)c6OC)[C@@H](C)O5)[C@@H](C)O4)O[C@@H]3[C@@H](C)O2)[C@H]1O (some centres not stated) [avilamycin],-0.351%
20,CN(C)CCCN1c2ccccc2Sc2ccccc21 [promazine],-7.95%

row,Compound,percent effect
1,CCCCCCCCCCCCCC[n+]1ccc(C)cc1 [miripirium],-22.9%
2,O=C1Nc2ccc(Cl)cc2[C@@](C#CC2CC2)(C(F)(F)F)O1 [efavirenz],-3.81%
3,C[N+]1(C)[C@@H]2CC[C@H]1C[C@@H](OC(=O)C(O)c1ccccc1)C2 (some centres not stated) [homatropine methylbromide],-2.01% and -7.03%
4,C[N+]12CCCCC1CCC(=C(c1cccs1)c1cccs1)C2 (configuration not stated) [tiquizium bromide],-0.0679%
5,COc1ccc2c(O[C@@H]3C[C@H]4C(=O)N[C@]5(C(=O)O)C[C@@H]5/C=C\CCCCC[C@H](NC(=O)OC5CCCC5)C(=O)N4C3)cc(-c3csc(NC(=O)C(C)C)n3)nc2c1C,-1.75%
6,CCC(=O)O[C@]1(C(=O)SCF)[C@H](C)C[C@H]2[C@@H]3C[C@H](F)C4=CC(=O)C=C[C@]4(C)[C@@]3(F)[C@@H](O)C[C@@]21C,-0.479%
7,C[N+]1(C)CCC(=C(c2ccccc2)c2ccccc2)CC1 [diphemanil metilsulfate],0.435%
8,O=[N+]([O-])c1ccc(S(=O)(=O)Nc2nccs2)cc1 [nitrosulfathiazole],-1.99%
9,NS(=O)(=O)Cc1noc2ccccc12 [zonisamide],3.51%
10,C[C@]12CCC(=O)C=C1CC[C@@H]1[C@@H]2[C@@H](O)C[C@@]2(C)[C@H]1CC[C@]2(O)C(=O)CS [tixocortol],-4.56%
11,CC(=O)Oc1ccccc1C(=O)O [Acetylsalicylic Acid],-1.12%
12,COc1ccc2c(c1)N(CCCN(C)C)c1ccccc1S2 [methopromazine],-0.341%
13,COc1cc([C@@H]2c3cc4c(cc3[C@@H](O[C@@H]3O[C@@H]5CO[C@@H](c6cccs6)O[C@H]5[C@H](O)[C@H]3O)[C@H]3COC(=O)[C@H]23)OCO4)cc(OC)c1O [Vumon],0.238%
14,C[C@@H](NCCCc1cccc(C(F)(F)F)c1)c1cccc2ccccc12 [cinacalcet],1.84%
15,C=C1CC[C@H](O)C/C1=C/C=C1\CCC[C@]2(C)[C@@H]([C@H](C)/C=C/[C@H](C)C(C)C)CC[C@@H]12,-7.58%
16,CC1(C)S[C@@H]2[C@H](NC(=O)[C@H](N)c3ccc(O)cc3)C(=O)N2[C@H]1C(=O)O [amoxicillin],-3.54%
17,Nc1nc(OCc2cc(Br)cs2)c2[nH]cnc2n1 [lomeguatrib],-6.35%
18,CN[C@H]1CC[C@@H](c2ccc(Cl)c(Cl)c2)c2ccccc21,-1.38%
19,CCCCOc1cc(C(=O)NCCN(CC)CC)c2ccccc2n1 [cinchocaine],-0.179%
20,CN(C)CCOC(=O)COc1ccc(Cl)cc1 [meclofenoxate],-5.48%
